In the supplement of paper PMC10849652:
The list shows a part of the results.

Sequences of proteins named here, by UniProt entry; tags and fusion partners are left off. A change or cut given only in a name is not applied to a line headed by its entry.
UniProt P54252: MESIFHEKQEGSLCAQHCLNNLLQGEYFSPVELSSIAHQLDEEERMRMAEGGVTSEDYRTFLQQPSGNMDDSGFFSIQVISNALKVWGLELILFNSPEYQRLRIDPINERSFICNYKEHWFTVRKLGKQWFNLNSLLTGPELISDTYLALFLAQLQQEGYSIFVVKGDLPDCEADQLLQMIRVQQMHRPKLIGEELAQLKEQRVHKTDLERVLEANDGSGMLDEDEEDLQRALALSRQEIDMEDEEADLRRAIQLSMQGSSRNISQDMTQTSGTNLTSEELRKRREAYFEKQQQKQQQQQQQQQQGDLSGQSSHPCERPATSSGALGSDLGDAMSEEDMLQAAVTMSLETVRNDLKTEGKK
UniProt Q9UBL3, whole entry, looked up: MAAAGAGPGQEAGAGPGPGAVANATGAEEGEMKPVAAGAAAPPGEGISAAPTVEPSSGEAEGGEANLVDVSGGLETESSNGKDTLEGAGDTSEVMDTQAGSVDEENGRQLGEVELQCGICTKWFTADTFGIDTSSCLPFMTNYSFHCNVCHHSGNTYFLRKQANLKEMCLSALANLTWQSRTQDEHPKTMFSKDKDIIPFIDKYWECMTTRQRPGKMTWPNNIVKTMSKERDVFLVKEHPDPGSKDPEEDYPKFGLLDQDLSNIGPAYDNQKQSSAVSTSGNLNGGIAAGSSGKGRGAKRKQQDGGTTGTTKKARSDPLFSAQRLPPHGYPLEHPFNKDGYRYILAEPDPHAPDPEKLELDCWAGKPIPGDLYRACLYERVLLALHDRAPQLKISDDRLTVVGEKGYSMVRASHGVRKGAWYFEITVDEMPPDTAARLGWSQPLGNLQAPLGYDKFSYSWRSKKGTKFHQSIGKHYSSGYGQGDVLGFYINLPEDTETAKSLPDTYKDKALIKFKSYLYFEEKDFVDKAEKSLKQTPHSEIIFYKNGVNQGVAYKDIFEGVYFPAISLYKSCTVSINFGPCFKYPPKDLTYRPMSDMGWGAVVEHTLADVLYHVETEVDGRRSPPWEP
UniProt Q7Z3C6: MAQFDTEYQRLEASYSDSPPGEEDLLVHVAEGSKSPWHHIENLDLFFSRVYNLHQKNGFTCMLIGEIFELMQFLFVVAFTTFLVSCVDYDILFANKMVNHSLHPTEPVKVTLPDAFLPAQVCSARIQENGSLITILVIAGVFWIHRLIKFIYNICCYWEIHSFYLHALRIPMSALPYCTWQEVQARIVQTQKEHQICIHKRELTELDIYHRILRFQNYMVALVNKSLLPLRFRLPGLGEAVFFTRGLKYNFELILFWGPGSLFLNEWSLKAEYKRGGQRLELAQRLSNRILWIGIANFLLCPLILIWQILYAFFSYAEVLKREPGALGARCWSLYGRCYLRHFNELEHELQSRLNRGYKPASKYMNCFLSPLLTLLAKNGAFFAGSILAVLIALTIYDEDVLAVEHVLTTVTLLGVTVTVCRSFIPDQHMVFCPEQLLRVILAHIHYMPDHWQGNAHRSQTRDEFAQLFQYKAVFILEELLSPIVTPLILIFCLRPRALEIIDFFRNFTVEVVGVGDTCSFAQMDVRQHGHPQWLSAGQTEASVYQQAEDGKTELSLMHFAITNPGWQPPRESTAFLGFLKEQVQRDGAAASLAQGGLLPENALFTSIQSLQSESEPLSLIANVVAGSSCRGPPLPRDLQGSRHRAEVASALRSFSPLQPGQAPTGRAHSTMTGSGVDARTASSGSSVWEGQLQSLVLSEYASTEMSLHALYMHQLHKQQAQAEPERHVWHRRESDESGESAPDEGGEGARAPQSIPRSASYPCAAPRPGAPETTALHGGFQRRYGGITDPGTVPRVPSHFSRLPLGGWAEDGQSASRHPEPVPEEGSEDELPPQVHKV
UniProt P61769, whole entry, looked up: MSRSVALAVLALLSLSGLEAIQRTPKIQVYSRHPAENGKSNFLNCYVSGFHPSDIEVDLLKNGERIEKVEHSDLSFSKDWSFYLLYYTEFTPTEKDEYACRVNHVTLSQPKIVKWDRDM
UniProt Q9NQ11: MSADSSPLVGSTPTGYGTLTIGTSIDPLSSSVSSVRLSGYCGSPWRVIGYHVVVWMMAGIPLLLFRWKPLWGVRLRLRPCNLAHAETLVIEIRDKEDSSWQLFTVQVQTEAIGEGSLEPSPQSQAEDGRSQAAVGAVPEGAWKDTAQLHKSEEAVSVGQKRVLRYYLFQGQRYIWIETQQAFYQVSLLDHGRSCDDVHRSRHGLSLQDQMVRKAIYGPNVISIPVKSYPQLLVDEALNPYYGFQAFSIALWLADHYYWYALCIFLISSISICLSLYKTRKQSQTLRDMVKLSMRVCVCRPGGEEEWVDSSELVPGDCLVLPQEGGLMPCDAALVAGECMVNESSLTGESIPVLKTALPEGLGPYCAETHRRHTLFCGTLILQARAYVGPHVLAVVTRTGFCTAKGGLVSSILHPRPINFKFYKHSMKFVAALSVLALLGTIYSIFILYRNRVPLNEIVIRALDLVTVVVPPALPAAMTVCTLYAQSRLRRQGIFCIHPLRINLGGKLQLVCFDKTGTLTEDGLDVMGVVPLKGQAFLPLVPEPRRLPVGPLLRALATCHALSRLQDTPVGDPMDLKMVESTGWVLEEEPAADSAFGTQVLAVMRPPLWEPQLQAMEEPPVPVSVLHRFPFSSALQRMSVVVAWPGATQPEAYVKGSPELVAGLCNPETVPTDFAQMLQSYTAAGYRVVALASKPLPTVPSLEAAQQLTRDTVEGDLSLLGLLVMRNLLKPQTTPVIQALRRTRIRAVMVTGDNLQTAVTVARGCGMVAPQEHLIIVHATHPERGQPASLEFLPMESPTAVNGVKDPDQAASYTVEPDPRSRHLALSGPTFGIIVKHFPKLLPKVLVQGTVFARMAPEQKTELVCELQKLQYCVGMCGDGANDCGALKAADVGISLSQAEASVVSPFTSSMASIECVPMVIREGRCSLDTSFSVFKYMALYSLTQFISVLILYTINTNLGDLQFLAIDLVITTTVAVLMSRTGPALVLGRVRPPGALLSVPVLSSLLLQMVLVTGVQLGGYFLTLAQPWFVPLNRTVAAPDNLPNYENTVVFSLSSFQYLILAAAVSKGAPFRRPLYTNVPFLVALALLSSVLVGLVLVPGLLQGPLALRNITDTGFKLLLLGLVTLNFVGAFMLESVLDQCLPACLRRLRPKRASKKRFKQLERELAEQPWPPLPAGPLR
UniProt Q8WXE1: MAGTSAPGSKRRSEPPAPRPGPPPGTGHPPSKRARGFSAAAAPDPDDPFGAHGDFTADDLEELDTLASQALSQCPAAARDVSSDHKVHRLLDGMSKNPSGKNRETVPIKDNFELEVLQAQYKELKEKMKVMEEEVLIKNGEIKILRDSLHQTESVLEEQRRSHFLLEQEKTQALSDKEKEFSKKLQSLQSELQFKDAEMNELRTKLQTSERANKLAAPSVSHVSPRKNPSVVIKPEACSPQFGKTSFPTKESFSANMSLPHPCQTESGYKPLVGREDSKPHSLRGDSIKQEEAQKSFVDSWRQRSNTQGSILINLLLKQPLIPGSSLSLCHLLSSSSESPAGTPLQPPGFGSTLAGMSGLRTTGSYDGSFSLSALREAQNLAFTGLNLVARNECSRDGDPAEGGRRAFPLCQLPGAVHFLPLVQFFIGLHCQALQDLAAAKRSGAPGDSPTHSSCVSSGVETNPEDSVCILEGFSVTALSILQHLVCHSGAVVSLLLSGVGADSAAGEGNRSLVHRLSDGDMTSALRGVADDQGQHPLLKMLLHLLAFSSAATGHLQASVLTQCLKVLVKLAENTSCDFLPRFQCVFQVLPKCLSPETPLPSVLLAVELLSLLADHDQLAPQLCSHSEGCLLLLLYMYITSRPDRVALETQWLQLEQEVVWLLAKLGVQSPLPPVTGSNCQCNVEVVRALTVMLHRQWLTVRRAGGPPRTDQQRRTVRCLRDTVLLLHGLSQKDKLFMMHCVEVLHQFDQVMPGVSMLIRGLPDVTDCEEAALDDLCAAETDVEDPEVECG
UniProt P04424, whole entry, looked up: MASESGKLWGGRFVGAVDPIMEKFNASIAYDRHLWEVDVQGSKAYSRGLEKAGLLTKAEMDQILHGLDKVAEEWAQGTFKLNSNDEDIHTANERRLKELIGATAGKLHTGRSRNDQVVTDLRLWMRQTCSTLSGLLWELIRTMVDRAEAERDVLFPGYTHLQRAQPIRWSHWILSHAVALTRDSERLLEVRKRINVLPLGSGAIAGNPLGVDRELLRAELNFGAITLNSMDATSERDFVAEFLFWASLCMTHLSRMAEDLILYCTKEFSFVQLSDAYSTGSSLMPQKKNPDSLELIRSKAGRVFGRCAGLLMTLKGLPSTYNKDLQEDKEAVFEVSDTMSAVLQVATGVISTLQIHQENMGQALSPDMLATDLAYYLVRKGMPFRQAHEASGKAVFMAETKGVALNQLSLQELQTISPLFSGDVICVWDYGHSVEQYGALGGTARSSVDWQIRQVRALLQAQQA
UniProt Q2TAZ0: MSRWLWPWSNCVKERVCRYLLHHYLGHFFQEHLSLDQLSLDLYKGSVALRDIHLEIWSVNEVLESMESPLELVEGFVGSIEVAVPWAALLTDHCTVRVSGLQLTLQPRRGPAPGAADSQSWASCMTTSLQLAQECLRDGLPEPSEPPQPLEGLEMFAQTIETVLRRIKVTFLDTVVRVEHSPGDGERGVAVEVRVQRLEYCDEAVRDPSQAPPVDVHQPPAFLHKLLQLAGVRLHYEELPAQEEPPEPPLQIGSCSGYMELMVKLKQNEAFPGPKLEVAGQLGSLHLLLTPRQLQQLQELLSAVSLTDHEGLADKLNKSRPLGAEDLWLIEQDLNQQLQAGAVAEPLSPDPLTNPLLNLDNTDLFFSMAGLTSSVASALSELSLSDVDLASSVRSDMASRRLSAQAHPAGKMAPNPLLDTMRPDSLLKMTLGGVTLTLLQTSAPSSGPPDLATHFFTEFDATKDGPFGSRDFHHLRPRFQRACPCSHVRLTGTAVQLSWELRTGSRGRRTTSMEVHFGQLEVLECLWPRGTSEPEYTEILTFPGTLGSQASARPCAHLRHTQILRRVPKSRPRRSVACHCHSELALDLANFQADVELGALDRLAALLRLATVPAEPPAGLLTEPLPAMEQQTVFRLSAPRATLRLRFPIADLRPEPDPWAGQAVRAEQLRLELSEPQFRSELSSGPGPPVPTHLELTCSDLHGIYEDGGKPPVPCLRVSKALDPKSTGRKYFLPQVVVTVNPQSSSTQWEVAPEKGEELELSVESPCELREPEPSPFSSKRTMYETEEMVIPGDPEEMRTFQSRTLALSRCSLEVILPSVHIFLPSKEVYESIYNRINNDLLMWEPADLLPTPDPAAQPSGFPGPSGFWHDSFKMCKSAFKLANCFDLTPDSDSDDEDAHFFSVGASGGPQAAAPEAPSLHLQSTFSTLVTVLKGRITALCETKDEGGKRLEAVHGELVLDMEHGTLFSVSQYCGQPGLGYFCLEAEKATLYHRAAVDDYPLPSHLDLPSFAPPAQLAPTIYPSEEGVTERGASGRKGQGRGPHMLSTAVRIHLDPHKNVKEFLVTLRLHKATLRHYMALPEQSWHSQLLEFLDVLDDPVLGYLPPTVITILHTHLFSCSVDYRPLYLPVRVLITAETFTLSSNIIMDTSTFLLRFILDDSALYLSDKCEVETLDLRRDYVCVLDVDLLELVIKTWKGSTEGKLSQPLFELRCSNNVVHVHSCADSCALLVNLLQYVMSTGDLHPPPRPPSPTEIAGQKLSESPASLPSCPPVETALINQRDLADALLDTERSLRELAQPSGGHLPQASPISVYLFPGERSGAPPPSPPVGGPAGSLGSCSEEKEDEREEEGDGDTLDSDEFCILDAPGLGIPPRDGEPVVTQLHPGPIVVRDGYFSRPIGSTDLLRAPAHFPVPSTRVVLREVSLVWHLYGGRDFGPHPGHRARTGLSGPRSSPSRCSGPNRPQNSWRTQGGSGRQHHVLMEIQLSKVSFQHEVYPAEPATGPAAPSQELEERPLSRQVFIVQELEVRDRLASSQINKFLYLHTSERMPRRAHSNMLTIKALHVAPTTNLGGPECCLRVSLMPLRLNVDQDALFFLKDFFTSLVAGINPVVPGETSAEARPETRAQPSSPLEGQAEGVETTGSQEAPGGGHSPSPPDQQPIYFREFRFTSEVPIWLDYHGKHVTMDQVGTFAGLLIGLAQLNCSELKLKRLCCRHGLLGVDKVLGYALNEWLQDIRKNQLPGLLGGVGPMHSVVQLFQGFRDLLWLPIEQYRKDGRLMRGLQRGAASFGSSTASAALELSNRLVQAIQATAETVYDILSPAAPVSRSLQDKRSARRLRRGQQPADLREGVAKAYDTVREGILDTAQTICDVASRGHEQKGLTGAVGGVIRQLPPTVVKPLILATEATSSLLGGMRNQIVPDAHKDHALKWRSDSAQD
UniProt P48047: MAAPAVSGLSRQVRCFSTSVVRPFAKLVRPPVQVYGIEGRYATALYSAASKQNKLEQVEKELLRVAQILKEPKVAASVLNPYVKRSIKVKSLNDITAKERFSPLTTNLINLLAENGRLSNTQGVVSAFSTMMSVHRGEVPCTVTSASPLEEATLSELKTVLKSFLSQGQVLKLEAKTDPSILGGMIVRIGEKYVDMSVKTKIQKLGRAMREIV

compound: C#Cc1cccc(Nc2ncnc3cc(OCCOC)c(OCCOC)cc23)c1 [erlotinib]; experiment: log2 fold change, soluble protein after heating vs DMSO (PISA); higher = thermal stabilisation; K562 lysate, 10 uM; active = over 0.2 and 3.5 SD of the protein, either way, in both replicates (recomputed)
Procedure, shortened: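 Quantification was by TMTpro 16plex LC-MS/MS with equalised channel sums, applied to the supernatant after 21,000xg for 90 min. Samples were crude K562 extract at 1 mg/mL protein in PBS pH 7.4 with 1 mM MgCl2, treated with 10 μM compound for 30 min, heated for 3 min across 48°C-58°C, pooled and brought to 0.5% NP-40 at 4°C. Values are log-two fold changes in thermal stability relative to solvent controls, from duplicates.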

log2 fold change, inactive:
B3GLCT (UniProt Q6Y288) 0.043, ATP13A1 (UniProt Q9HD20) 0.02, ATP5F1C (UniProt P36542) -0.029, ATP2B4 (UniProt P23634) 0.021, ATP5F1D (UniProt P30049) -0.006, ATP23 (UniProt Q9Y6H3) -0.068, ATXN3 isoform 1 (UniProt P54252) 0.001, AZGP1 (UniProt P25311) -0.117, ASH2L (UniProt Q9UBL3) -0.006, ATG9A (UniProt Q7Z3C6) 0.021, ATP6V1E2 (UniProt Q96A05) -0.011, ATP1A1 (UniProt P05023) 0.009, ATG101 (UniProt Q9BSB4) -0.031, B2M (UniProt P61769) -0.017, ASB6 (UniProt Q9NWX5) 0.038, ATP11A (UniProt P98196) -0.003, ATP6V1E1 (UniProt P36543) 0.017, ATP5PF isoform 2 (UniProt P18859) 0.063, ATP13A2 (UniProt Q9NQ11) 0.013, ATG7 (UniProt O95352) 0.03, ATRIP (UniProt Q8WXE1) -0.009, AVL9 (UniProt Q8NBF6) -0.012, ATP6V1F isoform 2 (UniProt Q16864) 0.053, ASL (UniProt P04424) 0.006, ATE1 isoform 2 (UniProt O95260) -0.022, ATP1A3 isoform 3 (UniProt P13637) 0.006, ATXN10 (UniProt Q9UBB4) 0.031, ATP6V1B2 (UniProt P21281) -0.015, ATG2A isoform 3 (UniProt Q2TAZ0) 0.044, ASF1B (UniProt Q9NVP2) -0.003, ATG4C (UniProt Q96DT6) -0.055, ATP1A4 (UniProt Q13733) 0.006, ASNA1 (UniProt O43681) 0.033, ATP5PO (UniProt P48047) -0.015
